# According to PubChem BioAssay AID1347075 (National Center for Advancing Translational Sciences (NCATS), 2019):
# Hit rate of the full screen: of about 400,000 compounds, about 5,500 (1.4%) were called active. The shares of active, inactive and inconclusive entries below differ from those in the screen. Calls come from the whole dose curve; as a rule, active = well fitted cell-killing curve with a large enough effect; inconclusive = small, poorly fitted or top-dose-only effect, or effect the other way; inactive = flat fitted curve, though single readings scatter. A potency beside an inconclusive call is a rough fit, not a confirmed value.
# Test: qHTS assay for MDR1-selective chemotherapeutics: Primary screen using the parental adenocarcinoma cell KB-3-1; note: nearly all actives have a fitted effect of over 60% in size
# Details: KB-3-1 viability, CellTiter-Glo ATP luminescence, 72 h; activity change, negative = cytotoxic: at 46.1 µM (top of the series)
# Method in brief: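 Using CellTiter-Glo luminescence, growth of non-resistant KB-3-1 adenocarcinoma cells is assessed 72 h after pin-tool compound addition at 37 °C. Normalized responses across the concentration series yield fitted curves.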
# % is set by controls: 0 for no effect and ±100 for the full control effect; potency is the fitted concentration of half-maximal effect.
Compound,Potency,"activity change, negative = cytotoxic"
CC1C(=O)N(Cc2cn(CC3CCCCC3)nn2)CCS(=O)(=O)N1Cc1ccc(-c2ccccc2)cc1 (configuration not stated),"inconclusive: 32.6 µM [cytotoxic, single point]",
CCc1ccccc1NC(=O)CSc1nnc(-c2cc(C)[nH]n2)n1N,,inactive: 14.5%
CC(C)c1ccc(C2=CC(c3cccc(Cl)c3)n3ncnc3N2)cc1 (configuration not stated),"inconclusive: 29.1 µM [cytotoxic, single point]",
CCCc1nnc(NC(=O)c2ccc([N+](=O)[O-])cc2)s1,"inconclusive: 0.0065 µM [rising, full curve]",
COc1ccc(-c2nc(-c3cccc(C)c3)nc(N3CCN(C)CC3)c2C#N)cc1,active: 5.8 µM,
Cc1ccc(Oc2nc(-c3ccccc3)ncc2S(=O)(=O)c2ccc(C)cc2)cc1,"inconclusive: 16.4 µM [cytotoxic, partial curve, poor fit]",
COCCOC(=O)C1=C(C)Nc2ncnn2C1c1ccccc1 (configuration not stated),,inactive: 8.21%
Cn1c(/C=C/c2ccc(Br)cc2)c([N+](=O)[O-])c(=O)n(C)c1=O,active: 20.6 µM,
Cc1ccc(C)n1-c1nn(S(=O)(=O)c2ccccc2)c2cccc(F)c12,"inconclusive: 2.91 µM [rising, partial curve, poor fit]",
CCCCCn1c(=O)[nH]c2cc(C(=O)N3CCN(c4ccc(F)cc4)CC3)ccc2c1=O,"inconclusive: 18.4 µM [cytotoxic, partial curve, poor fit]",
CCCCCCCCCn1c2c(c(=N)c3c1CCC3)CCCC2,"inconclusive: 0.82 µM [cytotoxic, full curve, poor fit]",
Nc1ccc(/C=C/c2ccnc3ccccc23)c([N+](=O)[O-])c1,"inconclusive: 20.6 µM [rising, single point]",
Cc1ccc(Cl)c2c1NC(=O)C2=O,"inconclusive: 29.1 µM [cytotoxic, single point]",
O=c1cc(N/N=C/c2ccccc2)[nH]c(=O)[nH]1,"inconclusive: 18.4 µM [cytotoxic, single point]",
CCCCNC(=O)c1nc(C2CCN(S(=O)(=O)c3cccc(C(F)(F)F)c3)CC2)oc1-c1ccccc1,,inactive: -1.61%
Cc1noc(C)c1NC(=O)N(C)C[C@H]1Oc2ccc(NC(=O)Cc3ccccc3)cc2C(=O)N([C@H](C)CO)C[C@@H]1C,,inactive: 0.862%
CCOC(=O)c1cc(NC(=O)Nc2ccccn2)c(C)nc1C,"inconclusive: 29.1 µM [rising, single point]",
CCOc1cc(S(=O)(=O)NC2CCCCC2)ccc1F,"inconclusive: 23.1 µM [cytotoxic, single point]",
COc1cc(C(O)c2nc(-c3ccccc3)cs2)ccc1F (configuration not stated),,inconclusive: -9.9%
Cc1cc(SCC(=O)c2ccc(O)c(O)c2)n2nc(C)c(-c3ccccc3)c2n1,"inconclusive: 16.4 µM [cytotoxic, single point]",
CCOC(=O)c1ccc(-c2c(-c3ccccc3OC)sc3cc4c(cc23)OCO4)cc1F,,inactive: -9.5%
COc1cccc(Cc2nc3ccccc3nc2SCC(=O)N2CCCCC2C)c1 (configuration not stated),"inconclusive: 11.6 µM [cytotoxic, partial curve]",
CCn1c(=O)cc(SCC(=O)N2CCN(Cc3ccc4c(c3)OCO4)CC2)c2ccccc21,"inconclusive: 14.6 µM [cytotoxic, partial curve, poor fit]",
CSc1ccc(CN(C)C(=O)C(Cc2ccccc2)NC(=O)c2ccccc2)cc1 (configuration not stated),,inactive: -4.33%

Compound,Potency,"activity change, negative = cytotoxic"
Cc1ccc(C(=O)NCCN2CCC(n3c(=O)[nH]c4ccccc43)CC2)cc1C,,inconclusive: 3.67%
CC(C)(C)Sc1ccc2nc3c(n2c1)CCCC3,"inconclusive: 8.2 µM [cytotoxic, partial curve, poor fit]",
Cc1ccc(-c2csc(C(O)c3ccccc3)n2)cc1C (configuration not stated),,inactive: 0%
O=C(Cc1ccc(-c2ccccc2)cc1)NCc1ccccc1,active: 0.082 µM,
Cc1nc(SCC(=O)NCC2COc3ccccc3O2)c2c(C)c(C)sc2n1 (configuration not stated),"inconclusive: 23.1 µM [cytotoxic, partial curve, poor fit]",
COc1cc(NC(=S)N2CCCCC2C)cc(OC)c1OC (configuration not stated),,inactive: 0.921%
COc1ccc(OC)c(CNc2nc3ccccc3n2CCN2CCCCC2)c1,"inconclusive: 32.6 µM [cytotoxic, single point]",
CCN(c1ccccc1)S(=O)(=O)c1cc(C(=O)NCc2ccco2)ccc1C,,inactive: -25.7%
CCc1ccc(C2CC3C(CN2S(=O)(=O)c2ccc(C)cc2)C(=O)CC(c2ccc(CC)cc2)N3S(=O)(=O)c2ccc(C)cc2)cc1 (configuration not stated),"inconclusive: 10.3 µM [cytotoxic, partial curve]",
COc1cccc(C(=O)Nc2sc3c(c2C#N)CCN(C(C)=O)C3)c1,active: 5.17 µM,
CC(C)C[C@H](NC(=O)c1nc[nH]c1C(=O)N1CCN(C(=O)OC(C)(C)C)CC1)C(=O)OC(C)(C)C,active: 5.8 µM,
CCOC(=O)c1sc2nc(C)nc(N3CCN(S(=O)(=O)c4ccccc4)CC3)c2c1C,"inconclusive: 32.6 µM [cytotoxic, single point]",
CC1(OC(=O)C2CCCC2)C(=O)C=C2C=C(c3ccsc3)N(C3CC3)C=C2C1=O (configuration not stated),,inactive: 8.4%
C[C@]12CC[C@@H]3c4ccc(O)cc4CC[C@H]3[C@@H]1C[C@@H](O)[C@@H]2O,,inactive: 0%
O=C(CCCCn1c(=O)c2ccccc2n(Cc2ccc(F)cc2Cl)c1=O)NCc1ccco1,"inconclusive: 29.1 µM [cytotoxic, single point]",
CCOc1cc(/C=C2\C(=O)ON=C2c2ccccc2)cc(Br)c1O,"inconclusive: 29.1 µM [cytotoxic, single point]",
CC1(C(=O)O)CCCN(C(=O)c2cccnc2Oc2ccccc2)C1 (configuration not stated),,inactive: 2.05%
CC(NC(=O)c1ccc2nc(CCc3ccccc3)oc2c1)c1ccccc1 (configuration not stated),,inactive: -3.68%
COc1ccc([C@H]2CC(=O)C=C(c3cc(C)ccc3OC)C2)cc1,active: 20.6 µM,
O=C(Cn1cnc2c(nnn2Cc2ccc(F)cc2)c1=O)NCc1ccccc1,"inconclusive: 29.1 µM [cytotoxic, single point]",
OC[C@@H]1CN(Cc2ccccc2)C[C@H](n2cnc3c(NCc4ccc(F)cc4)ncnc32)O1,,inactive: 1.18%
CC1CCC(NS(=O)(=O)c2ccc(N3CCCC3=O)cc2)CC1 (configuration not stated),"inconclusive: 11.6 µM [cytotoxic, single point]",
Cc1[nH]nc(-c2ccc(OCc3cnn(-c4ccccc4)c3)c(C)c2O)c1Oc1ccccc1,active: 20.6 µM,
O=C(Nc1ccc(N2CCCC2)c(Cl)c1)c1ccco1,,inactive: -7.94%

# Sorted by SMILES length (low to high): three of the compounds above
Compound,Potency,"activity change, negative = cytotoxic"
CC(NC(=O)c1ccc2nc(CCc3ccccc3)oc2c1)c1ccccc1 (configuration not stated),,inactive: -3.68%
CCOC(=O)c1sc2nc(C)nc(N3CCN(S(=O)(=O)c4ccccc4)CC3)c2c1C,"inconclusive: 32.6 µM [cytotoxic, single point]",
CC(C)C[C@H](NC(=O)c1nc[nH]c1C(=O)N1CCN(C(=O)OC(C)(C)C)CC1)C(=O)OC(C)(C)C,active: 5.8 µM,

# The list continues:

Compound,Potency,"activity change, negative = cytotoxic"
Cc1cccc(C(=O)N2CCNC(=O)C2CC(=O)Nc2cccc(Cl)c2)c1 (configuration not stated),,inactive: 18.5%
COc1cccc(C(=O)Nc2cc(OC)ccc2NC(=O)c2ccco2)c1,"inconclusive: 23.1 µM [rising, single point]",
COc1ccc(N2CCN(C(=O)CN(Cc3ccc(Cl)cc3)S(C)(=O)=O)CC2)cc1,"inconclusive: 22.4 µM [cytotoxic, single point]",
CCCCNc1nc2c(c(=O)n(C)c(=O)n2C)n1Cc1cccc(OC)c1,"inconclusive: 7.31 µM [cytotoxic, partial curve]",
O=[N+]([O-])c1ccc(N2CCN(S(=O)(=O)c3ccccc3[N+](=O)[O-])CC2)cc1N1CCc2ccccc2C1,,inconclusive: -2.71%
COc1cccc(OC)c1OC(=O)C1CC(=O)N(c2ccc3c(c2)OCCO3)C1 (configuration not stated),,inactive: 7.75%
Cc1ccc(C2(C)CC(C)(C)N(C(=O)CSc3nnc(C)s3)c3ccccc32)cc1 (configuration not stated),,inconclusive: -48%
O=C(NCc1ccc(Cl)cc1)C(=O)Nc1cccc(Br)c1,"inconclusive: 13 µM [rising, single point]",
C=CC(C)(C)c1c(O)c(CC=C(C)C)c(O)c2c(=O)c3ccc(O)c(O)c3oc12,"inconclusive: 23.1 µM [cytotoxic, single point]",
CCCCNC(=O)C(=O)Nc1ccc2c(c1)N(S(=O)(=O)c1cccs1)CCC2,active: 2.06 µM,
O=c1c2ccccc2nc(/C=C/c2cc(Br)ccc2O)n1CCCO,active: 20.6 µM,
OC[C@@H]1CN(Cc2ccc(Cl)cc2)C[C@H](n2cnc3c(Nc4ccccc4)ncnc32)O1,,inactive: -24.2%
Cc1oc(-c2ccc(Cl)cc2)nc1CN1CCCC(C(=O)N2CCN(C(=O)c3ccco3)CC2)C1 (configuration not stated),"inconclusive: 18.4 µM [cytotoxic, single point]",
FC(F)(F)c1nc2ccccc2n2c(-c3c(Cl)cccc3Cl)nnc12,"inconclusive: 25.9 µM [cytotoxic, partial curve, poor fit]",
CC1CCC(CC(=O)O)(C(=O)O)CC1 (configuration not stated),,inactive: 4.64%
O=C(CNC(=O)c1ccc(N2C(=O)c3ccccc3C2=O)cc1)OCC(=O)c1ccc(Cl)cc1,,inconclusive: 35.1%
Cc1cc(Nc2nnnn2-c2ccccc2)n(-c2ccc(Cl)cc2)n1,"inconclusive: 18.4 µM [cytotoxic, single point]",
O=C(NC1CCCC1)C(c1ccsc1)N(C(=O)Cc1cccs1)c1cccc(F)c1 (configuration not stated),,inactive: -7.55%
O=C(Nc1ccc2c(c1)CCCN2C(=O)c1ccccc1)c1ccccc1,"inconclusive: 32.6 µM [cytotoxic, single point]",
COc1ccc(OC)c2sc(NNC(=O)C3COc4ccccc4O3)nc12 (configuration not stated),,inactive: -15.8%
COc1cc(/C=N/NC(=O)c2sc(N)c(C#N)c2C)cc(Br)c1O,"inconclusive: 23.1 µM [rising, single point]",
CS(=O)(=O)c1ccc(Cl)c(NC(=O)CCN2C(=O)C3CC=CCC3C2=O)c1 (configuration not stated),,inactive: 10.1%
c1cncc(CNc2ncnc3sccc23)c1,,inactive: -6.23%
COc1ccc2cc(C(c3nnnn3C3CCCC3)N3CCOCC3)c3nnnn3c2c1 (configuration not stated),"inconclusive: 0.411 µM [cytotoxic, full curve, poor fit]",
